Data as given in PubChem BioAssay AID1053209 (Peter MacCallum Cancer Centre, 2014)
Assay: 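Follow-up of single siRNAs that strengthen doxorubicin killing in osteosarcoma cells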 (follow-up of hits). Cells: mouse primary osteosarcoma cells. Reagent: single siRNA against mouse genes, 25 nM (text also states 40 nM). Duration: about 120 h (48 h before drug, then 72 h with drug). Challenge: doxorubicin 100 nM (about IC30-40), added 48 h after transfection, for 72 h. Detection: 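Viability measured by ATP luminescence with and without doxorubicin, each replicate scaled to non-targeting siRNA NT1, averaged over two replicates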. Reading the numbers: viability with doxorubicin, vs NT1: higher = more viable cells under doxorubicin; viability without drug, vs NT1: higher = more viable cells without drug. Active means: 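Active when doxorubicin viability is at most 0.7 of NT1 and drug-free viability lies between 0.7 and 1.1, class LC dox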.
This is an unselected part of about 1,580 deposited reagents. 207 of them (13%) were called active. 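Rows are single siRNAs; four siRNAs per gene were tested, a gene counting as confirmed only when at least two agree.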 The numbers tell different reagents against one gene apart. Further read-outs or replicates are left out here. Reagent sequences are not shown.

Il13ra1 #1 gave combined effect class high viability only with doxorubicin; viability with doxorubicin, vs NT1 = 1.1; viability without drug, vs NT1 = 1.08; inactive.
Il13ra1 #2 scored combined effect class normal viability with and without drug; viability with doxorubicin, vs NT1 = 0.98; viability without drug, vs NT1 = 0.92; inactive.
Il13ra1 #3 showed combined effect class normal viability with and without drug; viability with doxorubicin, vs NT1 = 1.01; viability without drug, vs NT1 = 0.94; inactive.
Against Il13ra1 #4, the values are combined effect class normal viability with and without drug; viability with doxorubicin, vs NT1 = 0.96; viability without drug, vs NT1 = 0.97; inactive.
With knock-down of Rpl11 #1, the screen gave combined effect class low viability with and without drug; viability with doxorubicin, vs NT1 = 0.19; viability without drug, vs NT1 = 0.46; inactive.
Silencing of Rpl11 #2 resulted in: combined effect class normal viability with and without drug; viability with doxorubicin, vs NT1 = 0.92; viability without drug, vs NT1 = 1.01; inactive.
Against Rpl11 #3, the entry reads combined effect class low viability with and without drug; viability with doxorubicin, vs NT1 = 0.28; viability without drug, vs NT1 = 0.38; inactive.
Rpl11 #4 showed combined effect class normal viability with and without drug; viability with doxorubicin, vs NT1 = 1.06; viability without drug, vs NT1 = 1.02; inactive.
Rps19 #1 gave combined effect class low viability with and without drug; viability with doxorubicin, vs NT1 = 0.61; viability without drug, vs NT1 = 0.64; inactive.
For Rps19 #2, the values are combined effect class low viability with and without drug; viability with doxorubicin, vs NT1 = 0.67; viability without drug, vs NT1 = 0.66; inactive.
Rps19 #3 showed combined effect class low viability with and without drug; viability with doxorubicin, vs NT1 = 0.26; viability without drug, vs NT1 = 0.3; inactive.
Knock-down of Rps19 #4 resulted in: combined effect class low viability with and without drug; viability with doxorubicin, vs NT1 = 0.5; viability without drug, vs NT1 = 0.46; inactive.

Ordered by “viability without drug, vs NT1” (descending): some entries from above.
Rps19 #2 | combined effect class: low viability with and without drug; viability with doxorubicin, vs NT1: 0.67; viability without drug, vs NT1: 0.66; call: inactive
Rps19 #1 | combined effect class: low viability with and without drug; viability with doxorubicin, vs NT1: 0.61; viability without drug, vs NT1: 0.64; call: inactive
Rps19 #4 | combined effect class: low viability with and without drug; viability with doxorubicin, vs NT1: 0.5; viability without drug, vs NT1: 0.46; call: inactive
Rps19 #3 | combined effect class: low viability with and without drug; viability with doxorubicin, vs NT1: 0.26; viability without drug, vs NT1: 0.3; call: inactive

Continued.
Hormad1 #1 showed combined effect class normal viability with and without drug; viability with doxorubicin, vs NT1 = 0.99; viability without drug, vs NT1 = 0.86; inactive.
For Hormad1 #2, the values are combined effect class normal viability with and without drug; viability with doxorubicin, vs NT1 = 0.78; viability without drug, vs NT1 = 0.92; inactive.
After knock-down of Hormad1 #3, the screen gave combined effect class normal viability with and without drug; viability with doxorubicin, vs NT1 = 0.8; viability without drug, vs NT1 = 0.87; inactive.
Knock-down of Hormad1 #4 gave: combined effect class normal viability with and without drug; viability with doxorubicin, vs NT1 = 1.01; viability without drug, vs NT1 = 0.88; inactive.
After knock-down of Bahcc1 #1, the screen gave combined effect class normal viability with and without drug; viability with doxorubicin, vs NT1 = 1.06; viability without drug, vs NT1 = 1.06; inactive.
Bahcc1 #2 showed combined effect class normal viability with and without drug; viability with doxorubicin, vs NT1 = 0.89; viability without drug, vs NT1 = 0.97; inactive.
Depletion of Bahcc1 #3 came out at: combined effect class normal viability with and without drug; viability with doxorubicin, vs NT1 = 1.02; viability without drug, vs NT1 = 1.02; inactive.
Depletion of Bahcc1 #4 came out at: combined effect class normal viability with and without drug; viability with doxorubicin, vs NT1 = 1.06; viability without drug, vs NT1 = 1.04; inactive.
After knock-down of Rps7 #1, the record shows combined effect class low viability with and without drug; viability with doxorubicin, vs NT1 = 0.42; viability without drug, vs NT1 = 0.52; inactive.
After knock-down of Rps7 #2 the results were combined effect class low viability with and without drug; viability with doxorubicin, vs NT1 = 0.33; viability without drug, vs NT1 = 0.33; inactive.
Silencing of Rps7 #3 came out at: combined effect class low viability with and without drug; viability with doxorubicin, vs NT1 = 0.37; viability without drug, vs NT1 = 0.4; inactive.
For Rps7 #4, the entry reads combined effect class low viability with and without drug; viability with doxorubicin, vs NT1 = 0.32; viability without drug, vs NT1 = 0.34; inactive.
